Measured values published in paper PMC7842913.
No constants are given. Whether binding was seen depends on the method and setting. In cells and extracts the contact can be indirect. Some results given as binding are weak or reduced against the parent protein; the word gives no strength.

By UniProt entry, the sequences of proteins in these tests, tags left out. Residues count along the entry.
UniProt Q8C6B2, residues 7-89: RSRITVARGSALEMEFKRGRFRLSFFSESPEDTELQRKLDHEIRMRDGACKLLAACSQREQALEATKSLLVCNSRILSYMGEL
UniProt P61586: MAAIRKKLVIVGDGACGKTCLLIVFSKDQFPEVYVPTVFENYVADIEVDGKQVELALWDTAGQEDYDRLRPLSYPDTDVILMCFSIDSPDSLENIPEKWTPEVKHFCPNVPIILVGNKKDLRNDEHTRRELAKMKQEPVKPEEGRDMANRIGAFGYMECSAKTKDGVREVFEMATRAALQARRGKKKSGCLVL

Target: GST fusion of the Rho binding domain (RBD) of Rhotekin (UniProt Q8C6B2)
Experiment: pull-down; only the target purified

binding: binds
Substance: RhoA, endogenous in HeLa cells (GTP-bound) (from UniProt P61586 1-193)
